Data from patent publication EP4840863A1, “FLUORINE-CONTAINING PARTHENOLIDE DERIVATIVE, PREPARATION METHOD THEREFOR AND USE THEREOF” (dated 2026).

How the values were obtained:
[1] = Pharmacokinetic study of Compound 4: plasma concentrations (LC/MS); settings: iv (10 mg/kg) Compound 4, 3h, individual mice
Protocol: (1) Forty-eight healthy Bar b/c mice, each weighing approximately 20 g, were taken and divided into 3 groups. Blank control group (6 mice), oral gavage administration group (Compound 4 dose: 50 mg/kg, 21 mice), and tail vein injection administration group (Compound 4 dose: 10 mg/kg, 21 mice) (2) For the oral gavage group, blood samples were collected at 5 min, 15 min, 30 min, 1 h, 3 h, 8 h, and 24 h after administration. For the intravenous injection group, blood samples were collected at 2 min, 5 min, 15 min, 30 min, 1 h, 3 h, 8 h, and 24 h after administration. Blood was collected from mice via eyeball removal and placed in anticoagulant tubes containing sodium heparin. The samples were immediately centrifuged at 5000 rpm at low temperature (4°C) for 10 min to obtain plasma samples. The samples were stored in a -80°C freezer for analysis. Three mice were used per time point. (3) The mouse was fixed on a foam board. The skin on the chest was lifted with forceps, and the thoracic skin and ribs were cut open with scissors to expose the heart and liver. The auricle was then cut open. A syringe needle was inserted into the left ventricle of the mouse, and normal saline was perfused for approximately 1 min (10-20 mL) until the mouse's limbs, liver, and tongue turned pale. […] (4) The contents of Compound 4 and Compound 1 in peripheral blood and tissues were detected by LC/MS. […]

[2] = Distribution of Compound 4 and released Compound 1 in tissues (brain, pancreas, rectum, liver, lung; LC/MS); settings: individual mice
Protocol: (1) Forty-eight healthy Bar b/c mice, each weighing approximately 20 g, were taken and divided into 3 groups. Blank control group (6 mice), oral gavage administration group (Compound 4 dose: 50 mg/kg, 21 mice), and tail vein injection administration group (Compound 4 dose: 10 mg/kg, 21 mice) (2) For the oral gavage group, blood samples were collected at 5 min, 15 min, 30 min, 1 h, 3 h, 8 h, and 24 h after administration. For the intravenous injection group, blood samples were collected at 2 min, 5 min, 15 min, 30 min, 1 h, 3 h, 8 h, and 24 h after administration. Blood was collected from mice via eyeball removal and placed in anticoagulant tubes containing sodium heparin. The samples were immediately centrifuged at 5000 rpm at low temperature (4°C) for 10 min to obtain plasma samples. The samples were stored in a -80°C freezer for analysis. Three mice were used per time point. (3) The mouse was fixed on a foam board. The skin on the chest was lifted with forceps, and the thoracic skin and ribs were cut open with scissors to expose the heart and liver. The auricle was then cut open. A syringe needle was inserted into the left ventricle of the mouse, and normal saline was perfused for approximately 1 min (10-20 mL) until the mouse's limbs, liver, and tongue turned pale. Brain collection: The skin on the head was cut open to expose the white skull. The cartilage was cut, the skull cap was carefully pried open to expose the white brain, and the entire brain was dissected out. Tissues such as the pancreas, liver, lung, and rectum were also collected. The samples were stored in a -80°C freezer for analysis. (4) The contents of Compound 4 and Compound 1 in peripheral blood and tissues were detected by LC/MS. MS/MS information

[3] = iv (10 mg/kg) Compound 4, 30min, 10 mg/kg
[4] = iv (10 mg/kg) Compound 4, 3h, 10 mg/kg

Plasma Concentrations of the Released Active Substance Compound 1 [1]: 2.18* ng/mL and 2.95* ng/mL
Concentrations of Compound 1 in Pancreatic Tissue ([2]; iv (10 mg/kg) Compound 4, 15min, 10 mg/kg): 9.82* ng/g and 18.5* ng/g
Concentration of Compound 1 in the Lung [2, 3]: 5.76* ng/g, 6.21* ng/g, 2.23* ng/g
Concentrations of Compound 1 in Pancreatic Tissue [2, 3]: 5.60* ng/g, 15.2* ng/g, 14.2* ng/g
Concentrations of Compound 1 in Rectum ([2]; iv (10 mg/kg) Compound 4, 1h, 10 mg/kg): 11.0* ng/g and 5.37* ng/g
Concentration of Compound 1 in Liver [2, 4]: 2.32* ng/g and 4.09* ng/g
Concentrations of Compound 1 in Rectum [2, 4]: 0.874* ng/g and 0.305* ng/g
Concentration of Compound 1 in the Lung ([2]; po (50 mg/kg) Compound 4, 3h, 50 mg/kg): 14.7* ng/g, 18.7* ng/g, 7.19* ng/g
Structure (SMILES): C=C1C(=O)OC2C1CCC(CC(F)(F)F)=CCCC1(C)OC21 (centres unmarked)

Marks after values point to notes of the source that are not given here. For part of its entries the source gives two or more results. Only these are listed. An entry can have further records. Results that share an entry differ, and nothing given here explains why; some may be repeats, others may stem from another dose, organism or construct than stated.
